Some of the results follow. Single values are uncertain, as repeats are few or missing.
Legend:
Experiment in all cases: reduction in cell viability relative to untreated/vehicle; higher = more growth inhibition
Conditions in all cases: 200 nM; 72 h
[1] = test system: M229P (parental melanoma line)
[2] = test system: M229R (matched melanoma line resistant to BRAF inhibitors)
[3] = test system: M238P (parental melanoma line)
[4] = test system: M238R (matched melanoma line resistant to BRAF inhibitors)
[5] = test system: M249P (parental melanoma line)
[6] = test system: M249R (matched melanoma line resistant to BRAF inhibitors)
[7] = test system: UACC62P (parental melanoma line)
[8] = test system: UACC62R (matched melanoma line resistant to BRAF inhibitors)

Measured: reduction in cell viability

Cc1cc(CN2CCN(c3c(Br)cnc4nc(-c5ccc(N6CCN(C)CC6)cc5)[nH]c34)CC2)no1
38.3%: [8]
7.52%: [3]
< 0%: all other assays above

CN(C)C(=O)c1ccc(S(=O)(=O)c2ccc(NC(=O)[C@@](C)(O)C(F)(F)F)c(Cl)c2)cc1
< 0%: all assays above

Nc1ncn([C@H]2C[C@H](O)[C@@H](CO)O2)c(=O)n1 [Decitabine]
12.3%: [6]
< 0%: all other assays above

COc1cc(OC)c(NC(=O)Nc2cc(C)on2)cc1Cl
< 0%: all assays above

OC(CN1CCC(Cc2ccc(F)cc2)CC1)c1ccc(Cl)cc1 (configuration not stated) [Eliprodil]
< 0%: all assays above

CCCS(=O)(=O)Nc1ccc(F)c(C(=O)c2c[nH]c3ncc(-c4ccc(Cl)cc4)cc23)c1F [Vemurafenib (PLX4032, RG7204)]
24.4%: [3]
1.97%: [5]
6.65%: [2]
1.17%: [1]
42.8%: [7]
< 0%: all other assays above

CC[C@H](CC[C@@H](C)[C@H]1CC[C@H]2[C@@H]3CC=C4C[C@@H](O)CC[C@]4(C)[C@H]3CC[C@]12C)C(C)C [beta-Sitosterol]
< 0%: all assays above

CC1(C)CCC[C@]2(C)[C@H]3CC(=O)O[C@]3(C)CC[C@@H]12 [Sclareolide]
1.22%: [7]
< 0%: all other assays above

CN[C@@H](C)[C@H]1[C@H](O)C[C@@]2(C)[C@@H]3CC[C@H]4C(C)(C)[C@@H](NC)CC[C@@]45C[C@@]35CC[C@]12C [Cyclovirobuxin D]
< 0%: all assays above

Nc1nc(N)c2nc(-c3cccc(O)c3)c(-c3cccc(O)c3)nc2n1
2.29%: [6]
14%: [7]
< 0%: all other assays above

COc1ccc(C2CNC(=O)C2)cc1OC1CCCC1 (configuration not stated) [Rolipram]
not listed: [8]
< 0%: all other assays above

CN(C)CCCN1c2ccccc2CCc2ccc(Cl)cc21 [Clomipramine]
< 0%: all assays above

CCN(c1ccccc1)c1cc(NC)[n+](C)c(C)n1
4.43%: [2]
< 0%: all other assays above

CO[C@H]1/C=C/O[C@@]2(C)Oc3c(C)c(O)c4c(O)c(c(/C=N/N5CCN(C)CC5)c(O)c4c3C2=O)NC(=O)/C(C)=C\C=C\[C@H](C)[C@H](O)[C@@H](C)[C@@H](O)[C@@H](C)[C@H](OC(C)=O)[C@@H]1C [Rifampicin]
7.85%: [7]
13.9%: [5]
0.81%: [2]
10.8%: [4]
22.4%: [8]
< 0%: [1] | [6]
16.2%: [3]

CN1CC[C@H](c2c(O)cc(O)c3c(=O)cc(-c4ccccc4Cl)oc23)[C@H](O)C1 [Flavopiridol]
89.8%: [6]
84.2%: [7]
61.7%: [1]
86%: [3]
67.6%: [4]
83.3%: [5]
72.7%: [8]
61%: [2]

NC(CO)C(=O)NNCc1ccc(O)c(O)c1O (configuration not stated) [Benserazide]
< 0%: all assays above

CSCC[C@H](N)C(=O)N[C@@]1(C(=O)O)CS(=O)(=O)[C@H]2[C@H](C(=O)O)[C@H]21
< 0%: all assays above

CCNC(=O)Nc1ccc2ncc(Nc3ccc(C)cc3)nc2n1
12.6%: [6]
5.62%: [7]
< 0%: all other assays above

COc1ccc2nc3cc(Cl)ccc3c(Nc3cc(CN4CCCC4)c(O)c(CN4CCCC4)c3)c2n1 [Pyronaridine]
9.88%: [7]
< 0%: all other assays above

C[C@H](Cc1cc2c(c(C(N)=O)c1)N(CCCO)CC2)NCCOc1ccccc1OCC(F)(F)F [Silodosin]
< 0%: all assays above

N=C1S/C(=C\c2ccc(-c3ccc4c(c3)C(=O)NC4=O)o2)C(=O)N1c1ccc(Br)cc1 [Bioymifi]
< 0%: [1] | [2]
1.4%: [5]
7.95%: [8]
8.03%: [3]
6.44%: [6]
5.76%: [7]
1.38%: [4]
